Measurements published in PMC7075897.
No constants are given. Whether binding was seen depends on the method and setting. Binding seen in cells or lysates may run through a third protein. Some results given as binding are weak or reduced against the parent protein; the word gives no strength. Each block holds one molecule with its values, some of them ahead of it.

By UniProt entry, the sequences of proteins in these tests, tags left out.
UniProt O97159: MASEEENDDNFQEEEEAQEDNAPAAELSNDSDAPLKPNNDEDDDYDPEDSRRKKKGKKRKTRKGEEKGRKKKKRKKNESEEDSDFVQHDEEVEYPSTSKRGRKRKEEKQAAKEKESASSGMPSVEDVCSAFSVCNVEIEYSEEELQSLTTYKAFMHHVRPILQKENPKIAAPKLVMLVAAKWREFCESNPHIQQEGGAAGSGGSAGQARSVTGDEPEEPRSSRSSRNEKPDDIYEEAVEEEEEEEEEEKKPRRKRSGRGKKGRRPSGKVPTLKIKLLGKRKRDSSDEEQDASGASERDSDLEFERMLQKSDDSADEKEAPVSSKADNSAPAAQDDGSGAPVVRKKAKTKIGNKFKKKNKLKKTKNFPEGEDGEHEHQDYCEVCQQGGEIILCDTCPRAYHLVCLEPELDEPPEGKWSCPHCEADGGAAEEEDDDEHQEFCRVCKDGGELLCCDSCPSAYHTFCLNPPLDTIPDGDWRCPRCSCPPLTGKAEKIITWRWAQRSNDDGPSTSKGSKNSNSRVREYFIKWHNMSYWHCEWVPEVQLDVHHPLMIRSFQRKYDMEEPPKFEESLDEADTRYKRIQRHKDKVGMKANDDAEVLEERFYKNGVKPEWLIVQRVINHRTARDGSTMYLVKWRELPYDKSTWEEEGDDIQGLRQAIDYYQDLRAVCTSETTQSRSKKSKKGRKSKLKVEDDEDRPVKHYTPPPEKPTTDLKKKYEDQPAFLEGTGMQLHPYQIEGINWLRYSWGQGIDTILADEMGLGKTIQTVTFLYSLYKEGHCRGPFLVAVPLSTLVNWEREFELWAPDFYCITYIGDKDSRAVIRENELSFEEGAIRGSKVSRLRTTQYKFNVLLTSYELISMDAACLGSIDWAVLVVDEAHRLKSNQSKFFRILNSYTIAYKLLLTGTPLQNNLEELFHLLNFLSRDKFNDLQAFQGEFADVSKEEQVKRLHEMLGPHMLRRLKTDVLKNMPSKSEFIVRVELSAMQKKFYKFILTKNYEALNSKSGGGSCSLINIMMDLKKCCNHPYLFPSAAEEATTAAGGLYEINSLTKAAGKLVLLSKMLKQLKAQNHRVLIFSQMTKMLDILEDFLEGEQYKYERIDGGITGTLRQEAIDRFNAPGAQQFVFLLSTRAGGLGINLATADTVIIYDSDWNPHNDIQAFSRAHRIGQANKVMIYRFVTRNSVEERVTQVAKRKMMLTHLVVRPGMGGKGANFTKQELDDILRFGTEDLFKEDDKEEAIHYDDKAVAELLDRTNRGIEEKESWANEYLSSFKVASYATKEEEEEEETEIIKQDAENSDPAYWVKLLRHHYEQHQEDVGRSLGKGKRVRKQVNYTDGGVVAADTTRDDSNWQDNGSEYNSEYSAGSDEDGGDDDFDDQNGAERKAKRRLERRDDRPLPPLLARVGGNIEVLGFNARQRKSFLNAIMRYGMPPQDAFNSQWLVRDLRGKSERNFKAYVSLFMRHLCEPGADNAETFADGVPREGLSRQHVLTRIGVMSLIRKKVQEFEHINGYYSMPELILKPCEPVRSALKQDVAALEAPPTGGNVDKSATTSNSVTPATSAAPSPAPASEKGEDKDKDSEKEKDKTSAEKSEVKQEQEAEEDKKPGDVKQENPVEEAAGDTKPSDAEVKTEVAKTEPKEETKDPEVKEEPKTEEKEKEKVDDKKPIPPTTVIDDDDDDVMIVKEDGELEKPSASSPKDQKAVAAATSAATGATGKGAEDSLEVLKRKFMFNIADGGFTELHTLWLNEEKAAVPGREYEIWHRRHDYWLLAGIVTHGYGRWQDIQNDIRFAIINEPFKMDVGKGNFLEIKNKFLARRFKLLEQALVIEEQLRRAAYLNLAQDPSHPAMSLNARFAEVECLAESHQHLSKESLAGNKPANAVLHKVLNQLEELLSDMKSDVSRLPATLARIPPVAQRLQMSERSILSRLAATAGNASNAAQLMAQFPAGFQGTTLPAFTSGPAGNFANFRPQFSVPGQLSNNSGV
UniProt Q9V460: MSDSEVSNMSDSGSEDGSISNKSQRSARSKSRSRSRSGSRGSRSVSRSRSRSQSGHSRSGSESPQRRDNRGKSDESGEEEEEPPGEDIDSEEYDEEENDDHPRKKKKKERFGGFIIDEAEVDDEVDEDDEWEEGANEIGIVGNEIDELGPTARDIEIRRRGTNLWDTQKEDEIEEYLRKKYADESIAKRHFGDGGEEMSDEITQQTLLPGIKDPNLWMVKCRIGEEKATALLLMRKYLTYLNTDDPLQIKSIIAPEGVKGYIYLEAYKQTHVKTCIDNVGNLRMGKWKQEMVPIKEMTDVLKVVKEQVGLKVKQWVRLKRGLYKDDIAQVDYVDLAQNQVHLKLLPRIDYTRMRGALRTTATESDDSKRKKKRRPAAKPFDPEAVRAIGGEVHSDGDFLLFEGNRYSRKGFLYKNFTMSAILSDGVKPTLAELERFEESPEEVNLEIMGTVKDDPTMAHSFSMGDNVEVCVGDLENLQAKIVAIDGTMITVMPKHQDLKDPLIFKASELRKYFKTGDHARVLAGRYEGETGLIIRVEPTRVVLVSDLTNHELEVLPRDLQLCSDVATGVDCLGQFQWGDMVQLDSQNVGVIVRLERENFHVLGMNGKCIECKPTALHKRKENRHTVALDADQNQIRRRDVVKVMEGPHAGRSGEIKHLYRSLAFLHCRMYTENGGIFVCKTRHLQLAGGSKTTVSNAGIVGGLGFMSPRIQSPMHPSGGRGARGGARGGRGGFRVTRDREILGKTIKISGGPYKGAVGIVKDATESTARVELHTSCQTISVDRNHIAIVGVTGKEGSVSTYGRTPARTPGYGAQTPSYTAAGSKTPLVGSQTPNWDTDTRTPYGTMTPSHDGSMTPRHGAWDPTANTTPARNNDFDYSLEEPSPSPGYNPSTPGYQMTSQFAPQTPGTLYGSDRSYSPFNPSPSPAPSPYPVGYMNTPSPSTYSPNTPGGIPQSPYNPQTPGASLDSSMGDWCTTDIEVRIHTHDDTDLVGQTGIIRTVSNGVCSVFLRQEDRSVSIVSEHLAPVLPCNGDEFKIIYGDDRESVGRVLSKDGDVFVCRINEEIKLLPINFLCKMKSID
UniProt A0A0B4JDA0: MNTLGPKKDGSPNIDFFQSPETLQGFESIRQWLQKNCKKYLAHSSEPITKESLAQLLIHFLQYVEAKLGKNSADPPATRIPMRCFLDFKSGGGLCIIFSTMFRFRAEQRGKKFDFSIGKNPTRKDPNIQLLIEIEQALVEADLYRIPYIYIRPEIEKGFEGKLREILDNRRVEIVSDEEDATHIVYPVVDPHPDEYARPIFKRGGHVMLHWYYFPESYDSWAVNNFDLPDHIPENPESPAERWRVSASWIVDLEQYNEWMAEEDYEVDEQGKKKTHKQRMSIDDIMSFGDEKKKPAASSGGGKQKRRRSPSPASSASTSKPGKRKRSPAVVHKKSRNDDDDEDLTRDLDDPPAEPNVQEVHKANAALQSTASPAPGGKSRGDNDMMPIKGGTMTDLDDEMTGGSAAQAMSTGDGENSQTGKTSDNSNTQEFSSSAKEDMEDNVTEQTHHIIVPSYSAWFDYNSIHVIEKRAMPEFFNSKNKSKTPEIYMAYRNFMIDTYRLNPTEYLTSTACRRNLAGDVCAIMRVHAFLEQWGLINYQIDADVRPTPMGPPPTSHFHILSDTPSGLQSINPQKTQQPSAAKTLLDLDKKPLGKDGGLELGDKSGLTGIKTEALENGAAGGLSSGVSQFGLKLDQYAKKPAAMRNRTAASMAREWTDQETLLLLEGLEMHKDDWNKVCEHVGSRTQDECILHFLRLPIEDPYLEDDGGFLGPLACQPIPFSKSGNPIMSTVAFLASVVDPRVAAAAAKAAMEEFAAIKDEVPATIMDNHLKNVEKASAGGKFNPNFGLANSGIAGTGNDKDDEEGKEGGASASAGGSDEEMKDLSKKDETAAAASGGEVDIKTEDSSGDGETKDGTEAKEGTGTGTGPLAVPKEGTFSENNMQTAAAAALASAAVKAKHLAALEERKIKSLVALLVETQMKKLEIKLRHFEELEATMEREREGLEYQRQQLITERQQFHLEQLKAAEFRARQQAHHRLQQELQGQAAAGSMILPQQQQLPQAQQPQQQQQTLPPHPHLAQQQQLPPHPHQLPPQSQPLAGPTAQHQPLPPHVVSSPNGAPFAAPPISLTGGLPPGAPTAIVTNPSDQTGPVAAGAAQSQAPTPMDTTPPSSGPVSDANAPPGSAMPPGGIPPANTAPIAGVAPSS

Assays:
[1] = target: T1, EcR (Drosophila melanogaster (endogenous in prepupae and S2 cells)) (UniProt P34021); assay: co-IP; nuclear protein extract of Drosophila prepupa (0-12 h after puparium formation); IP with antibodies against the partners or against EcR, serum of non-immunized rabbits as control; western blot
T1 sequence: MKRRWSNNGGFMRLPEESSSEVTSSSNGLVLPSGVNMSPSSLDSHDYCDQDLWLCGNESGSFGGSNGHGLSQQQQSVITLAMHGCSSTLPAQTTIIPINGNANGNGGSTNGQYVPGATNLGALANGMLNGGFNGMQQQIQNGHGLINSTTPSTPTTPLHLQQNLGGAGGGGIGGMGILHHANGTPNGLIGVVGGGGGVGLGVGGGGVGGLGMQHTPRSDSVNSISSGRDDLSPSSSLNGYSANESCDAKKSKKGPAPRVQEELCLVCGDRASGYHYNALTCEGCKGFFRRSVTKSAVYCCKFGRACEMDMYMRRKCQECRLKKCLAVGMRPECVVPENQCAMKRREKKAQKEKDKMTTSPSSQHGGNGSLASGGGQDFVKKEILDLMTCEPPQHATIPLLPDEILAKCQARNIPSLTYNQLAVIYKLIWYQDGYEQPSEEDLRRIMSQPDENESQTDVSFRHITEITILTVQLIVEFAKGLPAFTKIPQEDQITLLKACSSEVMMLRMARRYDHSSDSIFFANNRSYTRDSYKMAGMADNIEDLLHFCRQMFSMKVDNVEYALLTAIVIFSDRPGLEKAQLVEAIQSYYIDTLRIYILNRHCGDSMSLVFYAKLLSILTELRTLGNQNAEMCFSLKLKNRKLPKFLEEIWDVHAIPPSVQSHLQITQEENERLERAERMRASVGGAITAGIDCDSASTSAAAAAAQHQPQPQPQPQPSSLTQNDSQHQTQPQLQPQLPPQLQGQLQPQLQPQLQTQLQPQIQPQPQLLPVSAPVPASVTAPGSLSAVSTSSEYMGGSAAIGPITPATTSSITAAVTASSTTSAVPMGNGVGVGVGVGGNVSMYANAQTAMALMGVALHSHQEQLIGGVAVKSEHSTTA

[2] = target: T2, CP190 (Drosophila melanogaster (endogenous in S2 cells and prepupae)) (UniProt Q24478); assay: co-IP; nuclear protein extracts of Drosophila S2 cells treated with 20E or DMSO for 1 h; IP with anti-CP190 or anti-EcR antibodies; western blot
T2 sequence: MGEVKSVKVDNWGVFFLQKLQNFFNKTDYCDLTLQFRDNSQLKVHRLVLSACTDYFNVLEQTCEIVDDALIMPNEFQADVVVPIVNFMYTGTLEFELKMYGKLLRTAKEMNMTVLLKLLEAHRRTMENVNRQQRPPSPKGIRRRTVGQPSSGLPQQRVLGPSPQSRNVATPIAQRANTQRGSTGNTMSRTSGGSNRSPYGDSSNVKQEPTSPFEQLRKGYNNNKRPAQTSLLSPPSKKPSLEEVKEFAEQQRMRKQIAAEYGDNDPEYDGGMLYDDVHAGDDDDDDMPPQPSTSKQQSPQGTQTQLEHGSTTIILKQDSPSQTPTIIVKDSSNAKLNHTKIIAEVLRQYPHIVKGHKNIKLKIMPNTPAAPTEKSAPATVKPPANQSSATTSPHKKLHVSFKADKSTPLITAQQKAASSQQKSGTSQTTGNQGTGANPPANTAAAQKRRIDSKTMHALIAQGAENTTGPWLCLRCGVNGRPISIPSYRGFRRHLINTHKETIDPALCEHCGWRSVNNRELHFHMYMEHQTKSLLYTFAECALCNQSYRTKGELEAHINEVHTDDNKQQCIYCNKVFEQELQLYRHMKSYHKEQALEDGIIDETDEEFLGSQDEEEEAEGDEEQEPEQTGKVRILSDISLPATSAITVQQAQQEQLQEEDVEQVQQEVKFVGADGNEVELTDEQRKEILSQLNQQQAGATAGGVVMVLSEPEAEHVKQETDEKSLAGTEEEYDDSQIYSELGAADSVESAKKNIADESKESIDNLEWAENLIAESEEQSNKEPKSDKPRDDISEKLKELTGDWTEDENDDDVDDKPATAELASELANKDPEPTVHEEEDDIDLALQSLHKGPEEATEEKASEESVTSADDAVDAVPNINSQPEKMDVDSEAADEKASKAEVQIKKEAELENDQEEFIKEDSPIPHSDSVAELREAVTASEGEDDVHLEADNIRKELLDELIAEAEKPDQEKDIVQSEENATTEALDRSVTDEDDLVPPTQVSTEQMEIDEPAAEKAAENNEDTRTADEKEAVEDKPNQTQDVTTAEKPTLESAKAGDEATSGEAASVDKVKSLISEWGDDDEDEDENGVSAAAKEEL

[3] = target: T2, CP190 (Drosophila melanogaster (endogenous in S2 cells and prepupae)); assay: co-IP; nuclear protein extract of Drosophila prepupa (0-12 h after puparium formation); IP with antibodies against the partners or against EcR, serum of non-immunized rabbits as control; western blot
[4] = target: T3, Chromator (Drosophila melanogaster (endogenous in S2 cells and prepupae)) (UniProt Q8T9D1); assay: as above
T3 sequence: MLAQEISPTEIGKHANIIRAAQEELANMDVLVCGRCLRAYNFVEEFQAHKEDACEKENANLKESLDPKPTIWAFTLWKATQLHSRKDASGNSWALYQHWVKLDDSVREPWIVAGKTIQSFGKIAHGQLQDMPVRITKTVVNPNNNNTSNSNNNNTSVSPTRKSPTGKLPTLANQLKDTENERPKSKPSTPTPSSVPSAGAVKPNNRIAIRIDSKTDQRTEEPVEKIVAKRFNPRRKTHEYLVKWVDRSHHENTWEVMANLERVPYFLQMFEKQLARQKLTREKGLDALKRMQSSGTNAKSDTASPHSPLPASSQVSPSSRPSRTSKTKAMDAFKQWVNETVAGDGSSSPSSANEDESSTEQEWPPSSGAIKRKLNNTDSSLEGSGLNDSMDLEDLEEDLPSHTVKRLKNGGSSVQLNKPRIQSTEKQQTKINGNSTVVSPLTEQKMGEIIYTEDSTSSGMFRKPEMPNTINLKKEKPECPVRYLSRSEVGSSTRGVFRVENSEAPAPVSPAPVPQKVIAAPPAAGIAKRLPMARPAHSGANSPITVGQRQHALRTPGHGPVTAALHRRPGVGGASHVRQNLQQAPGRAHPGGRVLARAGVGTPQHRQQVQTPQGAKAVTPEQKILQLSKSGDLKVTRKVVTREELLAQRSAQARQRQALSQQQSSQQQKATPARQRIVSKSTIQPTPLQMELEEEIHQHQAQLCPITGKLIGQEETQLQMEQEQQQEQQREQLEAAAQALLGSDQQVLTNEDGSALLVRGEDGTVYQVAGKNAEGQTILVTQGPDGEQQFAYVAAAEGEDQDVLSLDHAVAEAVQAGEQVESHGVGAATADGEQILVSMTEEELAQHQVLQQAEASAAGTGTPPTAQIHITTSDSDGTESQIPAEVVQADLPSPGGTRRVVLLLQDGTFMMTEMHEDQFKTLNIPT

[5] = target: Mi-2 (Drosophila melanogaster (endogenous in S2 cells and prepupae)) (UniProt O97159); assay: as above
[6] = target: Mor (Drosophila melanogaster (endogenous in S2 cells and prepupae)); assay: as above
[7] = target: Spt5 (Drosophila melanogaster (endogenous in S2 cells and prepupae)) (UniProt Q9V460); assay: as above

binding [1]: binds
Molecule: Mi-2 (from UniProt O97159 1-1982)

binding [1]: binds
Molecule: Mor (from UniProt A0A0B4JDA0 1-1145)

binding [1]: binds
Molecule: Spt5 (from UniProt Q9V460 1-1078)

binding [1]: binds
B1: Chromator (protein, UniProt Q8T9D1 1-926)
chain: MLAQEISPTEIGKHANIIRAAQEELANMDVLVCGRCLRAYNFVEEFQAHKEDACEKENANLKESLDPKPTIWAFTLWKATQLHSRKDASGNSWALYQHWVKLDDSVREPWIVAGKTIQSFGKIAHGQLQDMPVRITKTVVNPNNNNTSNSNNNNTSVSPTRKSPTGKLPTLANQLKDTENERPKSKPSTPTPSSVPSAGAVKPNNRIAIRIDSKTDQRTEEPVEKIVAKRFNPRRKTHEYLVKWVDRSHHENTWEVMANLERVPYFLQMFEKQLARQKLTREKGLDALKRMQSSGTNAKSDTASPHSPLPASSQVSPSSRPSRTSKTKAMDAFKQWVNETVAGDGSSSPSSANEDESSTEQEWPPSSGAIKRKLNNTDSSLEGSGLNDSMDLEDLEEDLPSHTVKRLKNGGSSVQLNKPRIQSTEKQQTKINGNSTVVSPLTEQKMGEIIYTEDSTSSGMFRKPEMPNTINLKKEKPECPVRYLSRSEVGSSTRGVFRVENSEAPAPVSPAPVPQKVIAAPPAAGIAKRLPMARPAHSGANSPITVGQRQHALRTPGHGPVTAALHRRPGVGGASHVRQNLQQAPGRAHPGGRVLARAGVGTPQHRQQVQTPQGAKAVTPEQKILQLSKSGDLKVTRKVVTREELLAQRSAQARQRQALSQQQSSQQQKATPARQRIVSKSTIQPTPLQMELEEEIHQHQAQLCPITGKLIGQEETQLQMEQEQQQEQQREQLEAAAQALLGSDQQVLTNEDGSALLVRGEDGTVYQVAGKNAEGQTILVTQGPDGEQQFAYVAAAEGEDQDVLSLDHAVAEAVQAGEQVESHGVGAATADGEQILVSMTEEELAQHQVLQQAEASAAGTGTPPTAQIHITTSDSDGTESQIPAEVVQADLPSPGGTRRVVLLLQDGTFMMTEMHEDQFKTLNIPT

binding [2]: binds | binding [3]: binds | binding [4]: binds | binding [5]: binds | binding [6]: binds | binding [7]: binds
B2: EcR (receptor, UniProt P34021 1-878)
chain: MKRRWSNNGGFMRLPEESSSEVTSSSNGLVLPSGVNMSPSSLDSHDYCDQDLWLCGNESGSFGGSNGHGLSQQQQSVITLAMHGCSSTLPAQTTIIPINGNANGNGGSTNGQYVPGATNLGALANGMLNGGFNGMQQQIQNGHGLINSTTPSTPTTPLHLQQNLGGAGGGGIGGMGILHHANGTPNGLIGVVGGGGGVGLGVGGGGVGGLGMQHTPRSDSVNSISSGRDDLSPSSSLNGYSANESCDAKKSKKGPAPRVQEELCLVCGDRASGYHYNALTCEGCKGFFRRSVTKSAVYCCKFGRACEMDMYMRRKCQECRLKKCLAVGMRPECVVPENQCAMKRREKKAQKEKDKMTTSPSSQHGGNGSLASGGGQDFVKKEILDLMTCEPPQHATIPLLPDEILAKCQARNIPSLTYNQLAVIYKLIWYQDGYEQPSEEDLRRIMSQPDENESQTDVSFRHITEITILTVQLIVEFAKGLPAFTKIPQEDQITLLKACSSEVMMLRMARRYDHSSDSIFFANNRSYTRDSYKMAGMADNIEDLLHFCRQMFSMKVDNVEYALLTAIVIFSDRPGLEKAQLVEAIQSYYIDTLRIYILNRHCGDSMSLVFYAKLLSILTELRTLGNQNAEMCFSLKLKNRKLPKFLEEIWDVHAIPPSVQSHLQITQEENERLERAERMRASVGGAITAGIDCDSASTSAAAAAAQHQPQPQPQPQPSSLTQNDSQHQTQPQLQPQLPPQLQGQLQPQLQPQLQTQLQPQIQPQPQLLPVSAPVPASVTAPGSLSAVSTSSEYMGGSAAIGPITPATTSSITAAVTASSTTSAVPMGNGVGVGVGVGGNVSMYANAQTAMALMGVALHSHQEQLIGGVAVKSEHSTTA
